Consider six compounds from patent EP4549150A1, “RESIN COMPOSITION FOR THREE-DIMENSIONAL PRINTING” (Cubicure GmbH, priority 2023, dated 2025).

A short description of the data set: Photo-DSC photo-reactivity study. The settings on record: for DBC: double bond conversion calculated from measured ΔH and theoretical enthalpy 56 kJ mol^-1 for methacrylates; for ΔH: heat of polymerization, 50°C, 365 nm LED 17 mW cm^-2, 1% w/w TPO-L, integrated 0 to 200 s, * = no heat of polymerization detected. The format is physicochemical. Here is the method: Photo-DSC (differential scanning calorimetry) studies were performed using a Netzsch DSC 204 F1 containing an autosampler and coupled to an intracooler IC85 cooling device. The system was connected to an Omnicure LX500 controller with a 365 nm LED and the power intensity was set on the sample at 17 mW cm^-2 (measured using a Thorlabs SMC100 powermeter and the corresponding S310C thermal power head). The test samples were mixed in a vortex mixer for 3 minutes with 1% w/w of TPO-L (a commercially available photoinitiator) and then […] were transferred to an aluminum crucible without lid. All experiments were conducted under Nitrogen atmosphere (flow = 20 mL/min) at 50°C and the samples were irradiated for 5 minutes. Triplicate DSC measurements were performed for each example. The measured heat of polymerization (ΔH) was calculated by integrating the area under the curve from 0 to 200 s.
Here, tmax is the time when maximum heat evolution was reached and t95% corresponds to the point when 95% of the total heat of polymerization has evolved (0 s corresponds to the moment when light is triggered). The double bound conversion (DBC) was calculated from the experimentally obtained heat of polymerization and the theoretical polymerization enthalpy indicated in the literature (56 kJ mol^-1 for methacrylates).

On to `C=C(C)C(=O)OC1CCCCC1OC(=O)C1CCCCC1` (centres unmarked) [Ex2, 2-(cyclohexylcarbonyloxy)cyclohexyl methacrylate], for which the DBC was 85% and the ΔH is reported as 43 kJ/mol.

Turning to `C=C(C)C(=O)OC1CCCCC1O` (centres unmarked) [Ex1, 2-hydroxycyclohexyl methacrylate], the DBC is 80% and the ΔH was 41 kJ/mol.

For `C=C(C)C(=O)OCCO` [Ref2, 2-hydroxyethylmethacrylate, reference compound], the DBC was over 99% and the ΔH came out at 52 kJ/mol. Further, for the setting “listed as Reference 2”, the DBC is over 99%.

Take “Isobornyl methacrylate [Ref1, reference compound]”: the DBC is 79% and the ΔH was 40 kJ/mol. Moreover, under “listed as Reference 1”, the ΔH is on record as ~ 40 kJ/mol.

Turning to `C=C(C)C(=O)OC1CCCCC1OC(=O)Cc1ccccc1` (centres unmarked) [Ex4, 2-(benzylcarbonyloxy)cyclohexyl methacrylate], the DBC is 72% and the ΔH amounted to 37 kJ/mol.

With `C=C(C)C(=O)OC1CCCCC1OC(=O)C(C)(C)C` (centres unmarked) [Ex3, 2-(isopropenylcarbonyloxy)cyclohexyl 2,2-dimethylpropionate], the DBC is reported as 85% and the ΔH turned out to be 43 kJ/mol.
